Measurements reported in PubChem BioAssay AID720505 (Drosophila RNAi Screening Center, 2013)
In all, the deposit lists about 20,000 reagents; this is an unselected part of those that have a named target and a result. Of all reagents, about 2,100 (10%) were called active. 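Raw plate signals without normalisation; calls rest on control-based scores that were not deposited; replicate 2 separates called from uncalled poorly.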 Reagents against one gene are numbered here. No sequences are given here. Not stated in the record: the amount of reagent, the time to read-out.

Assay: 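Genes needed for store-operated calcium entry in fly cells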 (primary screen)
System: Drosophila S2R+ cells
Reagent: long dsRNA against Drosophila genes
Treatment: thapsigargin (2 µM) in calcium-free buffer to empty internal stores, then 2 mM calcium added back
Read-out: 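Fluo-4 signal in 384-well plates read on a FLIPR after thapsigargin (2 µM, calcium-free) store depletion and 2 mM calcium add-back; unnormalised mean endpoint per well; screen run twice, selected wells retested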
Scale: calcium signal and retest calcium signal: higher = more calcium entry after store depletion
Hit rule: 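About 1500 genes called as lowering calcium entry, by varying amounts, judged against per-plate control wells with STIM1 as positive and Rho1 as negative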
Meaning of the calls: active = called as lowering calcium entry; inactive = not called

BBS1
- calcium signal, replicate 1: 97.1
- calcium signal, replicate 2: 122
- Outcome: inactive

CG31058 (retired record) #1
- calcium signal, replicate 1: 153
- calcium signal, replicate 2: 158
- Outcome: inactive

CG31058 (retired record) #2
- calcium signal, replicate 1: 87.6
- calcium signal, replicate 2: 126
- Outcome: inactive

Osi4
- calcium signal, replicate 1: 117
- calcium signal, replicate 2: 114
- Outcome: inactive

CG18048
- calcium signal, replicate 1: 123
- calcium signal, replicate 2: 122
- Outcome: inactive

Alg10
- calcium signal, replicate 1: 93
- calcium signal, replicate 2: 103
- Outcome: inactive

Hgsnat
- calcium signal, replicate 1: 77.7
- calcium signal, replicate 2: 62.1
- Outcome: active

CG12818
- calcium signal, replicate 1: 141
- calcium signal, replicate 2: 139
- Outcome: inactive

Zip99C
- calcium signal, replicate 1: 122
- calcium signal, replicate 2: 149
- Outcome: inactive

mRpS33
- calcium signal, replicate 1: 109
- calcium signal, replicate 2: 162
- Outcome: inactive

CG6125
- calcium signal, replicate 1: 92.4
- calcium signal, replicate 2: 68.7
- Outcome: inactive

RhoGEF3 #1
- calcium signal, replicate 1: 55.3
- calcium signal, replicate 2: 60.2
- retest calcium signal, replicate 1: 133
- retest calcium signal, replicate 2: 109
- Outcome: active

RhoGEF3 #2
- calcium signal, replicate 1: 83.8
- calcium signal, replicate 2: 109
- Outcome: inactive

RhoGEF3 #3
- calcium signal, replicate 1: 80.9
- calcium signal, replicate 2: 113
- Outcome: inactive

RhoGEF3 #4
- calcium signal, replicate 1: 87.2
- calcium signal, replicate 2: 64.4
- Outcome: inactive

GstD3
- calcium signal, replicate 1: 107
- calcium signal, replicate 2: 117
- Outcome: inactive

CG1486
- calcium signal, replicate 1: 182
- calcium signal, replicate 2: 158
- Outcome: inactive

CG13678
- calcium signal, replicate 1: 101
- calcium signal, replicate 2: 96.4
- Outcome: inactive

gd
- calcium signal, replicate 1: 146
- calcium signal, replicate 2: 111
- Outcome: inactive

spen
- calcium signal, replicate 1: 43.4
- calcium signal, replicate 2: 137
- Outcome: active

CG9150
- calcium signal, replicate 1: 143
- calcium signal, replicate 2: 106
- Outcome: inactive

CG17841
- calcium signal, replicate 1: 122
- calcium signal, replicate 2: 102
- Outcome: inactive

Lmpt #1
- calcium signal, replicate 1: 11344
- calcium signal, replicate 2: 153
- Outcome: inactive

Lmpt #2
- calcium signal, replicate 1: 79.4
- calcium signal, replicate 2: 229
- Outcome: inactive

Lmpt #3
- calcium signal, replicate 1: 106
- calcium signal, replicate 2: 106
- Outcome: inactive

Lmpt #4
- calcium signal, replicate 1: 64.7
- calcium signal, replicate 2: 223
- Outcome: active

Lmpt #5
- calcium signal, replicate 1: 97.7
- calcium signal, replicate 2: 139
- Outcome: inactive

Lmpt #6
- calcium signal, replicate 1: 152
- calcium signal, replicate 2: 122
- Outcome: inactive

Lmpt #7
- calcium signal, replicate 1: 109
- calcium signal, replicate 2: 161
- Outcome: inactive

sigmar
- calcium signal, replicate 1: 189
- calcium signal, replicate 2: 104
- Outcome: inactive

Jwa
- calcium signal, replicate 1: 115
- calcium signal, replicate 2: 105
- Outcome: inactive

CG45002
- calcium signal, replicate 1: 93.5
- calcium signal, replicate 2: 148
- Outcome: inactive

CG31104
- calcium signal, replicate 1: 209
- calcium signal, replicate 2: 162
- Outcome: inactive

Usp47
- calcium signal, replicate 1: 78.9
- calcium signal, replicate 2: 101
- Outcome: inactive

CG11815
- calcium signal, replicate 1: 82.8
- calcium signal, replicate 2: 109
- Outcome: inactive

Reagents listed so far called active (4):
Hgsnat
- calcium signal, replicate 1: 77.7
- calcium signal, replicate 2: 62.1
- Outcome: active

RhoGEF3 #1
- calcium signal, replicate 1: 55.3
- calcium signal, replicate 2: 60.2
- retest calcium signal, replicate 1: 133
- retest calcium signal, replicate 2: 109
- Outcome: active

spen
- calcium signal, replicate 1: 43.4
- calcium signal, replicate 2: 137
- Outcome: active

Lmpt #4
- calcium signal, replicate 1: 64.7
- calcium signal, replicate 2: 223
- Outcome: active
